For at least one entry, the source does not settle the construct or the ends of the probe. At least one verdict was read from the data and is not stated in words by the source.
Target: CPEB1 (Xenopus laevis) (UniProt Q91572)
Experiment: AlphaScreen
Conditions: 50 nM protein, 0.5-75 nM RNA; 3' biotin; 10 mM HEPES pH 7.4, 100 mM KCl, 3 mM MgCl2, 1 mM DTT, 0.2 mg/mL tRNA, 0.1% Tween; room temperature; 50 or 75 nM …; recombinant protein; protein details: 6xHis; label: 3' biotin

Chains of the proteins cited; added tags and fusions are not shown. Lines headed by an entry give the natural chain unless they say otherwise; changes in a name come on top.
UniProt Q91572: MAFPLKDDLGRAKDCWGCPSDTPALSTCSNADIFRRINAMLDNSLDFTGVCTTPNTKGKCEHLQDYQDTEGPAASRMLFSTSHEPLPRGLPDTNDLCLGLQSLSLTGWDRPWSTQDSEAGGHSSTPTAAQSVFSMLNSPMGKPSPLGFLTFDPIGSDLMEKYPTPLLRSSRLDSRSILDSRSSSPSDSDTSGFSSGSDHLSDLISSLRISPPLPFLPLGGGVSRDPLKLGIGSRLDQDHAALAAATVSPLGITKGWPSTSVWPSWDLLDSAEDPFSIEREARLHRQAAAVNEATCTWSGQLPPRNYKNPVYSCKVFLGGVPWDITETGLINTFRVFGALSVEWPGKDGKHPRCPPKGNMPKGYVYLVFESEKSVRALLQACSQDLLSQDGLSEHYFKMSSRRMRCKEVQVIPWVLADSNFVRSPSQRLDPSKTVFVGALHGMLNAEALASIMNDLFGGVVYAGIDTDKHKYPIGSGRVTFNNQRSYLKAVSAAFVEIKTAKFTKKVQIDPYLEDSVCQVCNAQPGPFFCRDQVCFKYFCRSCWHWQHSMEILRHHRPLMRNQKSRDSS

AGUGUACAGUGUUUUUAAUAGUUUGUUG [CPE-A]
binding result: binds

Source: PMC9465852
